From article PMC2868802
These are yes or no findings as the source states them, for the method shown. For some of these results: Binding seen in cells or lysates may run through a third protein. Some entries that bind do so weakly or less than the wild type.

Sequences of proteins named here, by UniProt entry; tags and fusion partners are left off. A change or cut given only in a name is not applied to a line headed by its entry. Residues count along the entry.
UniProt Q9NBK5: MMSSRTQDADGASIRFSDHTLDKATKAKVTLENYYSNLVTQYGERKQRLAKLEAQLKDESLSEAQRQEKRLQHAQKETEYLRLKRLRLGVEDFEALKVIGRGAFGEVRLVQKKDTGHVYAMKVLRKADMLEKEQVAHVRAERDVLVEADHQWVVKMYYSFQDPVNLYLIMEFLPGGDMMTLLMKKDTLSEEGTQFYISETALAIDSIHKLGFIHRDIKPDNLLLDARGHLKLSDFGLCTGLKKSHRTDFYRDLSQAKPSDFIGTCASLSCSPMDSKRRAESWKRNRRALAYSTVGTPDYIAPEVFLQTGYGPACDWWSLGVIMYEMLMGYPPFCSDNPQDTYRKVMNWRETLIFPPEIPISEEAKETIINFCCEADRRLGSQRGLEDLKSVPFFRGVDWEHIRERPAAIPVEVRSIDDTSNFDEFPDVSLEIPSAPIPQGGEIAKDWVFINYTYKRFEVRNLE
truncated Trc (amino acids 1-404): residues 1-404 of Q9NBK5
smaller Trc protein (amino acids 1-337): residues 1-337 of Q9NBK5
UniProt Q9VT28: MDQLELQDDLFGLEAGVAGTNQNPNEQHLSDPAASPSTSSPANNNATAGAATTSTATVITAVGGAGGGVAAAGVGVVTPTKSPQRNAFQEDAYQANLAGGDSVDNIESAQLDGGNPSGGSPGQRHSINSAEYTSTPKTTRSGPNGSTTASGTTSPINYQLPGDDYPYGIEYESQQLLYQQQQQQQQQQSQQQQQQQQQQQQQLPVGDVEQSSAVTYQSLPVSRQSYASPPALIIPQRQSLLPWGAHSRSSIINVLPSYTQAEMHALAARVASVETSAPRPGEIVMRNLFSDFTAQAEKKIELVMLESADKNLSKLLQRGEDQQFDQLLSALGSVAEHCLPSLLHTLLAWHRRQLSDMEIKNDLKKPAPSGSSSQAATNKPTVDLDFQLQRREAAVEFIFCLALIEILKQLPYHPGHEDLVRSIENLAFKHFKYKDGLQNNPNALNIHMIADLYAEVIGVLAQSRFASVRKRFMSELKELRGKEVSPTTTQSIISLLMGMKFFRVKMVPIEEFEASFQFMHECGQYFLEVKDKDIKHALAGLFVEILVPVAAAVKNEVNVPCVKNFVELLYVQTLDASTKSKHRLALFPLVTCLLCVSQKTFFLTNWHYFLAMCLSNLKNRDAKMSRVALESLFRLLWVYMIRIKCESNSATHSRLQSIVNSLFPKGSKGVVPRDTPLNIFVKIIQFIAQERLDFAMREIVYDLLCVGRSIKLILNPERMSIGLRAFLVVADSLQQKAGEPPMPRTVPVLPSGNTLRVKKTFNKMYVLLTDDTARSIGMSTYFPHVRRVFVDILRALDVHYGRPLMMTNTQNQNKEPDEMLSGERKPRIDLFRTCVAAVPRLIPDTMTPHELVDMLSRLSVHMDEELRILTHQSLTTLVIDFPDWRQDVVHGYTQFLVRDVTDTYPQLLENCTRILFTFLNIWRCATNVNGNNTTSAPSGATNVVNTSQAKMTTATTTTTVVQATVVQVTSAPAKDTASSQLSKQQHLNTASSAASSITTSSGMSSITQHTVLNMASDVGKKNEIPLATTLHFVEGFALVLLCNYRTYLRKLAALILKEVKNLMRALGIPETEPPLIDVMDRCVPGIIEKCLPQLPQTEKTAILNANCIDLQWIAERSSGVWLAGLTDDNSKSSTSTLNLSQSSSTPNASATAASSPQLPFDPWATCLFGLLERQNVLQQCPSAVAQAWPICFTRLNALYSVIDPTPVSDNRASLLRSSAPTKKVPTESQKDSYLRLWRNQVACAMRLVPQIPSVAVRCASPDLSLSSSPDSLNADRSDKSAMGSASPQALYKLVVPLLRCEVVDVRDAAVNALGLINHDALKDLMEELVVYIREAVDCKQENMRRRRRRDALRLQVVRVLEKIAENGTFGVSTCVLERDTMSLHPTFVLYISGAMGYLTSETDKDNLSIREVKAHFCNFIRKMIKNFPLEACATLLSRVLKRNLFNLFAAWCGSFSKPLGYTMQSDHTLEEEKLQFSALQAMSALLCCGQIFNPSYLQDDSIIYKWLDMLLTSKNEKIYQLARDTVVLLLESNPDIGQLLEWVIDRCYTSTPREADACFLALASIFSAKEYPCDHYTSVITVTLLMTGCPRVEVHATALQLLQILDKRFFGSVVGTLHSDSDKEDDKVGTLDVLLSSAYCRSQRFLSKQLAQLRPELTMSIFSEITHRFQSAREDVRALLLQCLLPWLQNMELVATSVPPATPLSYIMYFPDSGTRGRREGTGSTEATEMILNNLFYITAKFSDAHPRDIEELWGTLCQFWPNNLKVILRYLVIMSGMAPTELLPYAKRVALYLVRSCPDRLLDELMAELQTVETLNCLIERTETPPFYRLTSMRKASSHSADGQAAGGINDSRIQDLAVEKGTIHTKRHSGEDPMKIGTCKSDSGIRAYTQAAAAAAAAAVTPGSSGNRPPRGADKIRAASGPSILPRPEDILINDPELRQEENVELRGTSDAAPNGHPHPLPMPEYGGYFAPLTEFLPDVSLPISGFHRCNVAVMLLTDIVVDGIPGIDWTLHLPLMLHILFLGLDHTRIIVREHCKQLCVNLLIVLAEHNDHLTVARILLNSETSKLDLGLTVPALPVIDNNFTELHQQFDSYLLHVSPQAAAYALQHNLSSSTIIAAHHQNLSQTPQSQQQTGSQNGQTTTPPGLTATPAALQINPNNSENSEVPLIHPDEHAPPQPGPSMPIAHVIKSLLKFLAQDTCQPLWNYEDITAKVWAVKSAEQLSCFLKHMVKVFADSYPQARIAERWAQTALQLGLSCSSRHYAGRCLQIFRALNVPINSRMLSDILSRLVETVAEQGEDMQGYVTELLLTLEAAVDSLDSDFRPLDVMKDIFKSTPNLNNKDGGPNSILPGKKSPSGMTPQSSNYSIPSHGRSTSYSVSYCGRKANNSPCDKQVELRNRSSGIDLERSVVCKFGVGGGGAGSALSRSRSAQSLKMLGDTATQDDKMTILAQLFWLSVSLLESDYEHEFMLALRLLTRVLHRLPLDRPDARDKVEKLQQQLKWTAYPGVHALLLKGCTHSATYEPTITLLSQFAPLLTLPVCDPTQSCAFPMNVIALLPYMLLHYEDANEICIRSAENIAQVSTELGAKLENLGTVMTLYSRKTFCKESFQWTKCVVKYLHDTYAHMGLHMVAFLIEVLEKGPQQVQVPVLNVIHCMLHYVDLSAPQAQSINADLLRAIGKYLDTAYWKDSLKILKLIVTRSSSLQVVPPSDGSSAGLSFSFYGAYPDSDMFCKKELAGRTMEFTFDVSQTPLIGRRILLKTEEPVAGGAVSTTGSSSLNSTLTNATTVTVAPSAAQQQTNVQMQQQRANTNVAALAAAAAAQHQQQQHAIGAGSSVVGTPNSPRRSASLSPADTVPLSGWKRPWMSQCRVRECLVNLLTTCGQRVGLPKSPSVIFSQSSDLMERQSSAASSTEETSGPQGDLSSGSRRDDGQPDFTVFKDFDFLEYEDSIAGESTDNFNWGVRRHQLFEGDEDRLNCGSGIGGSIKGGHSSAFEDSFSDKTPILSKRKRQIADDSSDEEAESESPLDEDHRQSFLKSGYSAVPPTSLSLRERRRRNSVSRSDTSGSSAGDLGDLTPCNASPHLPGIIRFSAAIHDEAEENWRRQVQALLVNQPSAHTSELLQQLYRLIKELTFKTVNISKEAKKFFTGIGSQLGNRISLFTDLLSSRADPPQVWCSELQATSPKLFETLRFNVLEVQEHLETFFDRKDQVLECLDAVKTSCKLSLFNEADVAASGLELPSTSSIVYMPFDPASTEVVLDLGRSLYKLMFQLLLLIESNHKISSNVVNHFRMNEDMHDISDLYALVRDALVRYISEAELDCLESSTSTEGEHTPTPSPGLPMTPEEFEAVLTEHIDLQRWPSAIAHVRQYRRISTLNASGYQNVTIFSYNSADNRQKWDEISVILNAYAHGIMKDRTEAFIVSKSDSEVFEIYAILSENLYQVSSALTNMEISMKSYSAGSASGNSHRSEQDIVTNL

Experiments:
Trc-FLAG (Drosophila) = Trc-FLAG (Drosophila) (UniProt Q9NBK5); test: co-IP; extracts of wing discs of transgenic flies expressing both proteins by actin-GAL4; Trc-FLAG pulled down by rabbit anti-FLAG, blot probed with mouse anti-GFP or mouse anti-Myc
[1] = biological target: smaller Trc protein (amino acids 1-337) (Drosophila) (UniProt Q9NBK5); test: two-hybrid; Matchmaker GAL4 two hybrid system 3 (Clontech); N-Fry in pGADT7, Trc proteins in pGBKT7; scored as interacting by complementation for growth and induction of beta-galactosidase
[2] = biological target: truncated Trc (amino acids 1-404) (Drosophila) (UniProt Q9NBK5); test: as above

binding (Trc-FLAG (Drosophila))	binding [1]	binding [2]	Substance
binds	–	–	Myc-Fry-GFP (from UniProt Q9VT28 1-3479)
binds	–	–	Myc-N-Fry (transgene in flies) (from UniProt Q9VT28 1-1637) (domain or fragment)
–	no binding	binds	amino terminal fragment of Fry (amino terminal 1637 amino acids) in pGADT7 (from UniProt Q9VT28 1-1637) (domain or fragment)
